Measured data: PubChem BioAssay AID504774 (Drosophila RNAi Screening Center, 2011)
Purpose: 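Knock-downs that shift viability of MMS-exposed cells relative to untreated ones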 (primary screen). System: Drosophila Kc167 cells. Reagents: long dsRNA against Drosophila genes, about 0.25 µg dsRNA per well. Duration: about 6 days: 3 days knock-down, then 3 days with or without MMS. Conditions: methyl methanesulphonate 0.004% (w/v) for 3 days after knock-down. Measured: 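ATP-dependent luminescence as a measure of live cells in MMS-exposed wells, quantile normalised within each plate, with replicate values also given as a mean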. Scale: mean viability with MMS and viability with MMS: higher = more surviving cells after MMS.
The screen tested about 23,000 reagents; below is a random part of those with a known target gene and a result. 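Values are quantile-normalised luminescence on an arbitrary scale; higher means more cells surviving MMS.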 No sequences are given here.

no.	gene	dsRNA	mean viability with MMS	viability with MMS, replicate 1	viability with MMS, replicate 2
1	CG17994	DRSC04877	3.56e6	4.16e6	3.93e6
2	CG16727	DRSC15139	3.63e6	4.03e6	4.20e6
3	Chi (Chip)	DRSC04602	3.46e6	4.09e6	3.70e6
4	CG31360	DRSC13255	3.62e6	4.18e6	4.01e6
5	CG6431	DRSC02956	3.45e6	3.93e6	3.88e6
6	Hr38 (Hormone receptor-like in 38)	DRSC03345	3.12e6	3.66e6	3.66e6
7	Hr38 (Hormone receptor-like in 38)	DRSC23230	3.32e6	3.72e6	3.82e6
8	CG11905	DRSC09863	3.71e6	4.13e6	4.20e6
9	CG42676	DRSC08227	3.39e6	3.81e6	3.90e6
10	CG42676	DRSC08392	3.36e6	3.83e6	3.81e6

Continued (4 carried over from the part before).
no.	gene	dsRNA	mean viability with MMS	viability with MMS, replicate 1	viability with MMS, replicate 2
7	Hr38 (Hormone receptor-like in 38)	DRSC23230	3.32e6	3.72e6	3.82e6
8	CG11905	DRSC09863	3.71e6	4.13e6	4.20e6
9	CG42676	DRSC08227	3.39e6	3.81e6	3.90e6
10	CG42676	DRSC08392	3.36e6	3.83e6	3.81e6
11	nub (nubbin)	DRSC01260	3.54e6	3.96e6	4.06e6
12	nub (nubbin)	DRSC02498	3.53e6	4.05e6	3.97e6
13	nub (nubbin)	DRSC02499	3.55e6	4.00e6	4.06e6
14	nub (nubbin)	DRSC03583	3.44e6	3.89e6	3.92e6
15	nub (nubbin)	DRSC23066	2.96e6	3.64e6	2.88e6
16	Hou (Houki)	DRSC20001	3.86e6	4.30e6	4.48e6
17	Hou (Houki)	DRSC22347	3.05e6	3.78e6	3.81e6
18	CG31266	DRSC15747	3.58e6	4.08e6	4.05e6
19	CG42249	DRSC19383	3.58e6	4.06e6	4.04e6
20	CG42249	DRSC19826	3.61e6	4.16e6	4.00e6
21	pirk (poor Imd response upon knock-in)	DRSC04269	3.68e6	4.20e6	4.12e6
22	CG7251	DRSC03039	3.65e6	4.11e6	4.20e6
23	LanB1	DRSC03360	3.72e6	4.18e6	4.28e6
24	CG14269	DRSC17912	3.41e6	3.88e6	3.86e6
25	Cp190 (Centrosomal protein 190kD)	DRSC16607	3.41e6	3.82e6	3.87e6
26	Or85d (Odorant receptor 85d)	DRSC16767	3.54e6	4.01e6	4.04e6
27	CG2875	DRSC18231	3.48e6	3.91e6	3.99e6
28	Zpr1	DRSC18432	2.99e6	3.98e6	4.05e6
